Consider four molecules from paper PMC9705295.

Chains of the proteins cited; added tags and fusions are not shown.
UniProt Q60974: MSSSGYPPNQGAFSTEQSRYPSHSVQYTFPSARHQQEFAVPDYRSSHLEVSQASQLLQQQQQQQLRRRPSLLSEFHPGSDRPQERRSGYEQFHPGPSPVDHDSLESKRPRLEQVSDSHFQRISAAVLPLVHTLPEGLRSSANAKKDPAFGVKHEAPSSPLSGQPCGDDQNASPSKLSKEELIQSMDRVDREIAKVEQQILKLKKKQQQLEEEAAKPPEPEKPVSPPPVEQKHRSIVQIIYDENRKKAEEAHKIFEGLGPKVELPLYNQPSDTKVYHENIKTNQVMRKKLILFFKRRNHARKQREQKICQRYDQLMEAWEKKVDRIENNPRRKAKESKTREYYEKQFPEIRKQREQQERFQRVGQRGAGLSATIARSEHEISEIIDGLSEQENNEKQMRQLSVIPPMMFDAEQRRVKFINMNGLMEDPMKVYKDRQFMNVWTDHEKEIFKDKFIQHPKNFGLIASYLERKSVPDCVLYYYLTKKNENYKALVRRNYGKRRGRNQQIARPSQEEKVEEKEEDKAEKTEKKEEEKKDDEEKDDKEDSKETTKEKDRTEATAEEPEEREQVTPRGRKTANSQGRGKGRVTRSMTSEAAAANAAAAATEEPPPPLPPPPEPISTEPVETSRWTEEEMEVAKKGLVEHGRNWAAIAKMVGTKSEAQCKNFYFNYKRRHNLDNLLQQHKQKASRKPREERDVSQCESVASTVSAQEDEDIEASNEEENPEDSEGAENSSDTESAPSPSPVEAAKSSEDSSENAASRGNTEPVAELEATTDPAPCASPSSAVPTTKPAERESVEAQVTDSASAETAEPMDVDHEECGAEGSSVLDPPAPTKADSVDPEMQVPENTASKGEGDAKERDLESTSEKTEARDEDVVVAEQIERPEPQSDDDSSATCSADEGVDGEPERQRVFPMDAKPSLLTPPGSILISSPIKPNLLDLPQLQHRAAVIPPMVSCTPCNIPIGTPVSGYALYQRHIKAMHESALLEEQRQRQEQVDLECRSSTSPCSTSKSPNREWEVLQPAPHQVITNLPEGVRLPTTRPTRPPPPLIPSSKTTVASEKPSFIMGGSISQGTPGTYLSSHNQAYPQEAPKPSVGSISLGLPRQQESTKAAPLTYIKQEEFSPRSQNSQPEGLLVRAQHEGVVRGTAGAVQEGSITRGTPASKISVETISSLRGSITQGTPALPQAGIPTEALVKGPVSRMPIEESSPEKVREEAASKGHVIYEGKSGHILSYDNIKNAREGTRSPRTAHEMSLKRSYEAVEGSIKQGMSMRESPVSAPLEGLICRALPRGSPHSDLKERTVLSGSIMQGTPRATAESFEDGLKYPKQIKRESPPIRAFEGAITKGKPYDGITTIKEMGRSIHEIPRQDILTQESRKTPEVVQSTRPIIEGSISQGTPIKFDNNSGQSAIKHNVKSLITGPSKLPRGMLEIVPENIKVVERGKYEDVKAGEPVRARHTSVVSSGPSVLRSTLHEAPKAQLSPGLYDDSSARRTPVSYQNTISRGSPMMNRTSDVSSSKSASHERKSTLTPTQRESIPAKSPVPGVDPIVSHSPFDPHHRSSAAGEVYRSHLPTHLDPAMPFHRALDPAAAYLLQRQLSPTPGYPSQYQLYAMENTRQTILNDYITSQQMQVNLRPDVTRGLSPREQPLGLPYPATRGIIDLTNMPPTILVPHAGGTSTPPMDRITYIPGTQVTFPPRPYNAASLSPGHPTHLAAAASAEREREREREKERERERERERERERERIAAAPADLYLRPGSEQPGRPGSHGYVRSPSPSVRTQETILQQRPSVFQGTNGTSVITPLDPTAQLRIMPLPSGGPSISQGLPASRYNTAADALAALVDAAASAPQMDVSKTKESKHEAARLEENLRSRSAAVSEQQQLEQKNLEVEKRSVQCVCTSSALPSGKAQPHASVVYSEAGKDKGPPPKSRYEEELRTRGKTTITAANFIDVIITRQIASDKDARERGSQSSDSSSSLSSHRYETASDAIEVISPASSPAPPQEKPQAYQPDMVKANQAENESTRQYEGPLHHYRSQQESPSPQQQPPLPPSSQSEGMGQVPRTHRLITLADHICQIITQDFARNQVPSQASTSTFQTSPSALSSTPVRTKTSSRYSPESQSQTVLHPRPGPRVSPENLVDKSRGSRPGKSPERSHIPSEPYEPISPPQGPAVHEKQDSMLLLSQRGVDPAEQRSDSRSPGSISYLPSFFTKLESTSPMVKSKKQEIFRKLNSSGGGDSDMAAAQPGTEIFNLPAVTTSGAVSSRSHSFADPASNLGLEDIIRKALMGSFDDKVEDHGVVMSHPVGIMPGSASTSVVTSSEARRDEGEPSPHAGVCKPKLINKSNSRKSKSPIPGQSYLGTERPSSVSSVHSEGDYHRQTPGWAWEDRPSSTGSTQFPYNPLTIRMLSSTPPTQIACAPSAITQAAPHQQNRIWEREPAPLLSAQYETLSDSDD
UniProt O09106: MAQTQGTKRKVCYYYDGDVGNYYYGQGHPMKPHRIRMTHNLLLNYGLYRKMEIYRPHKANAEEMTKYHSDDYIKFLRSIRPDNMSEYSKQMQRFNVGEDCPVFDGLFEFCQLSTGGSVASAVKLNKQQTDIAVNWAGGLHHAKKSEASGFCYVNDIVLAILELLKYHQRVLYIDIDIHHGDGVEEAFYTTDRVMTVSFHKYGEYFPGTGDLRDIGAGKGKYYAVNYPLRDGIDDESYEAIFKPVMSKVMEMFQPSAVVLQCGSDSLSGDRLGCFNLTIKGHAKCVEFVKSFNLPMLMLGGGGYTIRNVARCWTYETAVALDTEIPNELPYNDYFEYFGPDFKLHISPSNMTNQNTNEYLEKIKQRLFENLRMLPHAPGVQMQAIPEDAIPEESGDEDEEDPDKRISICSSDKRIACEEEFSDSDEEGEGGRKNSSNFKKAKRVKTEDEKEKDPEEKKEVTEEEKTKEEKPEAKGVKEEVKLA

No constants are given. Whether binding was seen depends on the method and setting. In cells and extracts the contact can be indirect. Some binding calls cover weakened binding; strength is not graded here. For some of these results: Where a sequence is shown, tags or fusion partners need not be part of it.

For test [1], the target named is T1, MYC-tagged mouse LATS1 (mouse) (UniProt Q8BYR2).
T1 sequence: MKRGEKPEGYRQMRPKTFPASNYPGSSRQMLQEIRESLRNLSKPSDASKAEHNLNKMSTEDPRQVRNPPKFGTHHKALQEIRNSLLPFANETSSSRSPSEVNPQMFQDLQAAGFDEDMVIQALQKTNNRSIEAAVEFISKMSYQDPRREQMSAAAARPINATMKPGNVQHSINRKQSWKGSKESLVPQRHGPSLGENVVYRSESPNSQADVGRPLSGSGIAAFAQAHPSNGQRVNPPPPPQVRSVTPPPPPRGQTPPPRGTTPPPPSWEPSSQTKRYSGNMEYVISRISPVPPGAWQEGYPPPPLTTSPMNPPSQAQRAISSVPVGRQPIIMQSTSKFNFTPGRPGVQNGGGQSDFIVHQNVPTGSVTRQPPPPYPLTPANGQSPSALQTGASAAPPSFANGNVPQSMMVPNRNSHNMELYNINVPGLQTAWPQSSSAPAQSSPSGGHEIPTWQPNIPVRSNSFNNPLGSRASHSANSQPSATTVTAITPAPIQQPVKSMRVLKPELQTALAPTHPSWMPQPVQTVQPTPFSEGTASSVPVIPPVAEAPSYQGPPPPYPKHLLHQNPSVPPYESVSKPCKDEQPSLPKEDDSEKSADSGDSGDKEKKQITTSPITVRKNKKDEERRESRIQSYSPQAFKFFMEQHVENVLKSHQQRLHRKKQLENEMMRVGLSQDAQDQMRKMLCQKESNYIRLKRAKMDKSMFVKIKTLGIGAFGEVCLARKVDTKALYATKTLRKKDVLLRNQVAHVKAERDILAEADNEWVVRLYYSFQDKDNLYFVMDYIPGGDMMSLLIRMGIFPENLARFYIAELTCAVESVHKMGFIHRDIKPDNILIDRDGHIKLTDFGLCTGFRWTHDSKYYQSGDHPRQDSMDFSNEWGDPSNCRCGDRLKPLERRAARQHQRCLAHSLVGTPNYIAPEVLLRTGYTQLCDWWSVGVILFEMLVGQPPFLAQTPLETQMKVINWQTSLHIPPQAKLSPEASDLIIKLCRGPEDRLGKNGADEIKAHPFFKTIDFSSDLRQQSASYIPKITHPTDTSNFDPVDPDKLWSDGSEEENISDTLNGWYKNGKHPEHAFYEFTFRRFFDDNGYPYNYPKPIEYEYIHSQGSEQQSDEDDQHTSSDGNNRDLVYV
Kind of test: co-IP; Lats1-CKO PyMT cells stably transduced with MYC-tagged mouse Lats1 or vector; immunoprecipitation with antibodies against MYC-tag (9E10) or LATS1, Western blot; NP-40 lysis buffer (50 mM Tris-HCl pH 8.0, 150 mM NaCl, 1.0% NP-40), Protein A Dynabeads, 4 h at 4 °C. In general terms: In western blotting, separated proteins are transferred to a membrane and probed.

For test [2], the target named is endogenous NCOR1 (mouse PyMT cells) (mouse (endogenous in PyMT cells)) (UniProt Q60974). As to the kind of experiment: co-IP; endogenous proteins, WT PyMT cells (expressing LATS1), Fig. S5d; NP-40 lysis buffer, Protein A Dynabeads, 4 h at 4 °C.
Test [3] has the same target. Kind of test: proximity ligation; PyMT cells, fixed (4% PFA) and permeabilised (0.1% Triton); DuoLink In Situ PLA with antibodies against GFP and NCOR1.

As for “HDAC1 (mouse PyMT cells, endogenous) (from UniProt O09106 1-482) (enzyme)”, in test [1], the binding entry is given as “binds”.

On to “endogenous NCOR1 (mouse PyMT cells) (from UniProt Q60974 1-2453)”, for which, in test [1], the binding entry is given as “binds”.

B1: endogenous LATS1 (mouse WT PyMT cells) (protein, UniProt Q8BYR2 1-1129)
chain: T1 sequence
As for B1, the binding result in test [2] is given as “binds weakly”.

B2: GFP-tagged mouse LATS1 (in PyMT cells) (protein, UniProt Q8BYR2 1-1129)
chain: T1 sequence
As to B2, the binding entry in test [3] is listed as “binds”.
